# Source: the supplement of paper PMC8728848
# This is one part of the list.
# B1: PX14343I-pdi-501-30-501 (Parabacteroides distasonis) (protein)
# chain: SDQYSTETFWKTKEHASAGIMGCYNALKLWRSLHTMEFDMLTANAMPYNEANGTQAIGKGEHLSTTALIGSLWKNCYVGIGRTNTFIANVGGVDMDESEKAKMVGEAKFLRAFYYLSLVDKFGGVPLIIDAPNADEQAELPRNSKEEVVNQIVKDLEEAAAVLPDTYASSDLGRATKGAALALKARTLLYNSRWAEAAQAAKQVMESGVYQLFNDYRHFFSEDNKYNCEVIFDIEAKLPEYPTDYDQNIWRLNRPAPLKELVDTYLCVDGKTIEESPLYDPTRPYENRDPRLLKSIVCIGYPYLGKTITKEDVATTGFGVKKYTSYEDDVTIPLVERSAFNFILIRYAEVLLTYAEAQNEASGPDQSVYDAINQLRRRPDINMPEVPKGLTKDQMREVIRRERRIELTFEGLYYSDILRWKTAEKENNGMMHNYEGIEVVKRSFNPKRDYLWPIPYNQTVLNPNLEQNPNWD
# Tests used:
# [1] = target: Neu5Gc(a2-8)Neu5Gc(a2-6)Gal(b1-4)GlcNAc; experiment: glycan array binding signal (z-score within array); higher = stronger binding; conditions: glycan notation: IUPAC condensed, linker removed
# Summary of the method: (§1)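 Columns mapping to the same glycan were averaged after glycan names were converted to IUPAC-condensed notation. The data come from 3228 arrays in the Consortium for Functional Glycomics database, limited to those with an available protein sequence. Binding is reported as a within-array Z-score averaged across arrays of one protein sequence and across linkers.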
# [2] = target: Neu5Gc(b2-6)Gal(b1-4)GlcNAc; experiment: as above; conditions: glycan notation: IUPAC condensed, linker removed
# Summary of the method: as §1
binder,measurement,setting,value
B1,glycan array binding signal (z-score),[1],0.592
same,glycan array binding signal (z-score),[2],0.015
